These are yes or no findings as the source states them, for the method shown. Some results given as binding are weak or reduced against the parent protein; the word gives no strength. One block for each binder: values may come before it.
Experiments:
[1] = target: human LAG-3 (Bio-Layer Interferometry; construct not stated) (human) (UniProt P18627); assay: Bio-Layer Interferometry, antibody bound to the sensor, LAG-3 flown over
[2] = target: human LAG-3 (Bio-Layer Interferometry; construct not stated) (human) (UniProt P18627); assay: Bio-Layer Interferometry sandwich, LAG-3 captured by a first antibody on the sensor
[3] = target: human LAG-3 (Bio-Layer Interferometry; construct not stated) (human) (UniProt P18627); assay: Bio-Layer Interferometry
[4] = target: human LAG-3 coupled to phycoerythrin (human) (UniProt P18627); assay: blocking assay, flow cytometry: labelled LAG-3 pre-incubated with Fab, then binding to MHC class II on Daudi cells, mean fluorescence intensity
[5] = target: human LAG-3 coupled to phycoerythrin (human) (UniProt P18627); assay: blocking assay, flow cytometry: phycoerythrin-coupled human LAG-3 pre-incubated with Fab, then binding to MHC class II on Daudi cells
[6] = target: LAG-3 on activated CD4+ T cells (Homo sapiens (Human)) (UniProt P18627); assay: flow cytometry, CD4+ T cells activated with anti-CD3/CD28 beads for 3 days
[7] = target: LAG-3 on activated CD4+ T cells (Homo sapiens (Human)) (UniProt P18627); assay: flow cytometry, CD4+ T cells activated with anti-CD3/CD28 beads for 3 days, IgG1 at 100, 10 and 1 nM, geometric MFI

Sequences of proteins named here, by UniProt entry; tags and fusion partners are left off. Residues count along the entry.
UniProt P18627, residues 23-450: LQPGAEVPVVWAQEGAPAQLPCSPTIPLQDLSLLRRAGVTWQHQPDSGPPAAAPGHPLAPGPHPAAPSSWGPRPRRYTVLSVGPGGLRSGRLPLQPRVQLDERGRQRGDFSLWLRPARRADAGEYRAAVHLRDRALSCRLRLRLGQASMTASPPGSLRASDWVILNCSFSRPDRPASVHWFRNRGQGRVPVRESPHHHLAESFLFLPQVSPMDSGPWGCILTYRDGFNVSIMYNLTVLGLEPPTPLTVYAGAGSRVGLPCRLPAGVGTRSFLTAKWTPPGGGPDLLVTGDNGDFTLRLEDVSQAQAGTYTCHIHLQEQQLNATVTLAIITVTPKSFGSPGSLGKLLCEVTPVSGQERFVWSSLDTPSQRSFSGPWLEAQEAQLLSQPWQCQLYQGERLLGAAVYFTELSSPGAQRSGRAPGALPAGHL

binding [1]: binds | binding [2]: binds | binding [3]: binds
B1: anti-LAG-3 antibody clone F5 (format not stated) (antibody, V domains shown)
VH: EVQLVQSGAEVKKPGASVKVSCKVSGYTLTELSMHWVRQTPGKGLEWMGGFDPEDGETIYAQKFQGRVTMTEDTSTDTAYMELSSLRSEDTAVYYCATTWFGELYYWGQGTLVTVSS
VL: ETTLTQSPGTLSLSPGERATLSCRASQSVSSGYLAWYQQKPGQAPRLLIYDASSRATGIPDRFSGSGSGADFTLTISRLQPEDFAVYYCQQYGSSRPGLTFGGGTRVEIK

binding [4]: binds | binding [5]: binds
B2: anti-LAG-3 antibody clone F5 Fab (Fab, V domains shown)
VH: EVQLVQSGAEVKKPGASVKVSCKVSGYTLTELSMHWVRQTPGKGLEWMGGFDPEDGETIYAQKFQGRVTMTEDTSTDTAYMELSSLRSEDTAVYYCATTWFGELYYWGQGTLVTVSS
VL: ETTLTQSPGTLSLSPGERATLSCRASQSVSSGYLAWYQQKPGQAPRLLIYDASSRATGIPDRFSGSGSGADFTLTISRLQPEDFAVYYCQQYGSSRPGLTFGGGTRVEIK

binding [6]: binds | binding [7]: binds
B3: anti-LAG-3 antibody clone F5 in IgG1 format (antibody, V domains shown)
VH: EVQLVQSGAEVKKPGASVKVSCKVSGYTLTELSMHWVRQTPGKGLEWMGGFDPEDGETIYAQKFQGRVTMTEDTSTDTAYMELSSLRSEDTAVYYCATTWFGELYYWGQGTLVTVSS
VL: ETTLTQSPGTLSLSPGERATLSCRASQSVSSGYLAWYQQKPGQAPRLLIYDASSRATGIPDRFSGSGSGADFTLTISRLQPEDFAVYYCQQYGSSRPGLTFGGGTRVEIK

— US20190040136A1
